PubChem BioAssay AID493246, Drosophila RNAi Screening Center – 2011
Purpose: 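Genome-wide search for dsRNAs that reduce cell number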 (primary screen). Cells: Drosophila Kc and S2R+ cells. Reagent: long dsRNA against Drosophila genes. Read-out: 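Cell number per well after knock-down, printed as raw plate values; calls were based on per-plate z-scores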. Direction: Kc cell number and S2R+ cell number: higher = more cells remaining. Hit rule: 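Counted as a hit if cell number falls by a z-score of at least 3 within its plate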.
The screen tested about 21,000 reagents; shown is an unselected part of those with a known target gene and a result. In the full data, 429 (2%) were called active. 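Values are raw and not normalised between plates; calls rest on per-plate z-scores that were not deposited.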 Reagents against one gene are numbered here. A plus sign joins genes that one reagent is predicted to hit. The record does not give: the amount of reagent, the time to read-out.

CG9568 (GeneID 34227)
- Kc cell number, rep 1: 1.48e6
- Kc cell number, rep 2: 1.45e6
- S2R+ cell number, rep 1: 1.03e6
- S2R+ cell number, rep 2: 1.12e6
- Call: inactive

CG15082 (GeneID 37173)
- Kc cell number, rep 1: 1.71e6
- Kc cell number, rep 2: 1.73e6
- S2R+ cell number, rep 1: 1.18e6
- S2R+ cell number, rep 2: 1.41e6
- Call: inactive

CG42505 + CG42504 + CG31358 #1
- Kc cell number, rep 1: 1.51e6
- Kc cell number, rep 2: 1.52e6
- S2R+ cell number, rep 1: 1.25e6
- S2R+ cell number, rep 2: 1.30e6
- Call: inactive

CG42505 + CG42504 + CG31358 #2
- Kc cell number, rep 1: 1.87e6
- Kc cell number, rep 2: 1.92e6
- S2R+ cell number, rep 1: 1.48e6
- S2R+ cell number, rep 2: 1.56e6
- Call: inactive

CG31224 (GeneID 42237)
- Kc cell number, rep 1: 1.68e6
- Kc cell number, rep 2: 1.80e6
- S2R+ cell number, rep 1: 1.34e6
- S2R+ cell number, rep 2: 1.44e6
- Call: inactive

CG9992 (GeneID 32605)
- Kc cell number, rep 1: 6.57e5
- S2R+ cell number, rep 1: 9.40e5
- Call: inactive

Sdr (GeneID 41809)
- Kc cell number, rep 1: 1.47e6
- Kc cell number, rep 2: 1.53e6
- S2R+ cell number, rep 1: 1.29e6
- S2R+ cell number, rep 2: 1.35e6
- Call: inactive

Oatp33Ea (GeneID 34660)
- Kc cell number, rep 1: 1.25e6
- Kc cell number, rep 2: 1.30e6
- S2R+ cell number, rep 1: 8.70e5
- S2R+ cell number, rep 2: 9.24e5
- Call: inactive

Ak2 (GeneID 37834)
- Kc cell number, rep 1: 1.32e6
- Kc cell number, rep 2: 1.32e6
- S2R+ cell number, rep 1: 1.18e6
- S2R+ cell number, rep 2: 1.25e6
- Call: inactive

Tace (GeneID 43558)
- Kc cell number, rep 1: 5.31e5
- S2R+ cell number, rep 1: 8.24e5
- Call: inactive

Gr32a (GeneID 34545)
- Kc cell number, rep 1: 1.50e6
- Kc cell number, rep 2: 1.59e6
- S2R+ cell number, rep 1: 1.24e6
- S2R+ cell number, rep 2: 1.37e6
- Call: inactive

Nckx30C (GeneID 45248) #1
- Kc cell number, rep 1: 1.47e6
- Kc cell number, rep 2: 1.53e6
- S2R+ cell number, rep 1: 1.27e6
- S2R+ cell number, rep 2: 1.35e6
- Call: inactive

Nckx30C (GeneID 45248) #2
- Kc cell number, rep 1: 1.54e6
- Kc cell number, rep 2: 1.61e6
- S2R+ cell number, rep 1: 1.28e6
- S2R+ cell number, rep 2: 1.47e6
- Call: inactive

Nckx30C (GeneID 45248) #3
- Kc cell number, rep 1: 1.71e6
- Kc cell number, rep 2: 1.85e6
- S2R+ cell number, rep 1: 1.40e6
- S2R+ cell number, rep 2: 1.56e6
- Call: inactive

Nckx30C (GeneID 45248) #4
- Kc cell number, rep 1: 1.42e6
- Kc cell number, rep 2: 1.46e6
- S2R+ cell number, rep 1: 9.75e5
- S2R+ cell number, rep 2: 1.16e6
- Call: inactive

IntS1 (GeneID 37840)
- Kc cell number, rep 1: 1.02e6
- Kc cell number, rep 2: 1.11e6
- S2R+ cell number, rep 1: 8.52e5
- S2R+ cell number, rep 2: 9.62e5
- Call: inactive

CG7542 (GeneID 39960)
- Kc cell number, rep 1: 1.27e6
- Kc cell number, rep 2: 1.39e6
- S2R+ cell number, rep 1: 1.24e6
- S2R+ cell number, rep 2: 1.22e6
- Call: inactive

CG3222 (GeneID 39114)
- Kc cell number, rep 1: 1.38e6
- Kc cell number, rep 2: 1.25e6
- S2R+ cell number, rep 1: 1.17e6
- S2R+ cell number, rep 2: 1.32e6
- Call: inactive

SerT (GeneID 37895)
- Kc cell number, rep 1: 1.58e6
- Kc cell number, rep 2: 1.58e6
- S2R+ cell number, rep 1: 1.15e6
- S2R+ cell number, rep 2: 1.25e6
- Call: inactive

kune (GeneID 35504)
- Kc cell number, rep 1: 1.61e6
- Kc cell number, rep 2: 1.53e6
- S2R+ cell number, rep 1: 1.19e6
- S2R+ cell number, rep 2: 1.28e6
- Call: inactive

CG12576 (GeneID 33135)
- Kc cell number, rep 1: 1.57e6
- Kc cell number, rep 2: 1.64e6
- S2R+ cell number, rep 1: 1.05e6
- S2R+ cell number, rep 2: 1.16e6
- Call: inactive

CG12170 (GeneID 40692)
- Kc cell number, rep 1: 1.34e6
- Kc cell number, rep 2: 1.35e6
- S2R+ cell number, rep 1: 1.12e6
- S2R+ cell number, rep 2: 1.19e6
- Call: inactive

CG12934 (GeneID 36124)
- Kc cell number, rep 1: 1.45e6
- Kc cell number, rep 2: 1.51e6
- S2R+ cell number, rep 1: 1.14e6
- S2R+ cell number, rep 2: 1.27e6
- Call: inactive

C1GalTA (GeneID 34215)
- Kc cell number, rep 1: 1.33e6
- Kc cell number, rep 2: 1.44e6
- S2R+ cell number, rep 1: 9.69e5
- S2R+ cell number, rep 2: 1.03e6
- Call: inactive

Galphaq (GeneID 36384)
- Kc cell number, rep 1: 1.36e6
- Kc cell number, rep 2: 1.40e6
- S2R+ cell number, rep 1: 1.21e6
- S2R+ cell number, rep 2: 1.29e6
- Call: inactive

TpnC25D (GeneID 33752)
- Kc cell number, rep 1: 1.66e6
- Kc cell number, rep 2: 1.54e6
- S2R+ cell number, rep 1: 1.18e6
- S2R+ cell number, rep 2: 1.38e6
- Call: inactive

CG15142 (GeneID 35059)
- Kc cell number, rep 1: 1.52e6
- Kc cell number, rep 2: 1.58e6
- S2R+ cell number, rep 1: 1.20e6
- S2R+ cell number, rep 2: 1.36e6
- Call: inactive

4 entries from above, set out differently:
{"target":"IntS1 (GeneID 37840)","dsRNA no.":1,"Kc cell number, rep 1":1.02e6,"Kc cell number, rep 2":1.11e6,"S2R+ cell number, rep 1":8.52e5,"S2R+ cell number, rep 2":9.62e5,"Call":"inactive"}
{"target":"CG7542 (GeneID 39960)","dsRNA no.":1,"Kc cell number, rep 1":1.27e6,"Kc cell number, rep 2":1.39e6,"S2R+ cell number, rep 1":1.24e6,"S2R+ cell number, rep 2":1.22e6,"Call":"inactive"}
{"target":"CG3222 (GeneID 39114)","dsRNA no.":1,"Kc cell number, rep 1":1.38e6,"Kc cell number, rep 2":1.25e6,"S2R+ cell number, rep 1":1.17e6,"S2R+ cell number, rep 2":1.32e6,"Call":"inactive"}
{"target":"SerT (GeneID 37895)","dsRNA no.":1,"Kc cell number, rep 1":1.58e6,"Kc cell number, rep 2":1.58e6,"S2R+ cell number, rep 1":1.15e6,"S2R+ cell number, rep 2":1.25e6,"Call":"inactive"}
